{"sequences": {"note": "Amino acid sequences for entries named in this document (tags omitted).", "UniProt O43586": "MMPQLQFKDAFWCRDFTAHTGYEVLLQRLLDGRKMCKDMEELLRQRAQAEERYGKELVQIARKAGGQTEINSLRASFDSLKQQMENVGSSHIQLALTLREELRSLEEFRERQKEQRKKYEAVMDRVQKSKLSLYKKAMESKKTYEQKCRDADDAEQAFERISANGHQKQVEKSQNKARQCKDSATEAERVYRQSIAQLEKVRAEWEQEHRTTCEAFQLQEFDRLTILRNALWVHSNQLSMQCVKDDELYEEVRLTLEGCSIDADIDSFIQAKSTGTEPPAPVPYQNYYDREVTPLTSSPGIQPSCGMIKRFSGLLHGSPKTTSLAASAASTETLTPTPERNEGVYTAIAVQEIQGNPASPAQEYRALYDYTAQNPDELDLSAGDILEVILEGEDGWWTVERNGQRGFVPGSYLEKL", "UniProt Q16513": "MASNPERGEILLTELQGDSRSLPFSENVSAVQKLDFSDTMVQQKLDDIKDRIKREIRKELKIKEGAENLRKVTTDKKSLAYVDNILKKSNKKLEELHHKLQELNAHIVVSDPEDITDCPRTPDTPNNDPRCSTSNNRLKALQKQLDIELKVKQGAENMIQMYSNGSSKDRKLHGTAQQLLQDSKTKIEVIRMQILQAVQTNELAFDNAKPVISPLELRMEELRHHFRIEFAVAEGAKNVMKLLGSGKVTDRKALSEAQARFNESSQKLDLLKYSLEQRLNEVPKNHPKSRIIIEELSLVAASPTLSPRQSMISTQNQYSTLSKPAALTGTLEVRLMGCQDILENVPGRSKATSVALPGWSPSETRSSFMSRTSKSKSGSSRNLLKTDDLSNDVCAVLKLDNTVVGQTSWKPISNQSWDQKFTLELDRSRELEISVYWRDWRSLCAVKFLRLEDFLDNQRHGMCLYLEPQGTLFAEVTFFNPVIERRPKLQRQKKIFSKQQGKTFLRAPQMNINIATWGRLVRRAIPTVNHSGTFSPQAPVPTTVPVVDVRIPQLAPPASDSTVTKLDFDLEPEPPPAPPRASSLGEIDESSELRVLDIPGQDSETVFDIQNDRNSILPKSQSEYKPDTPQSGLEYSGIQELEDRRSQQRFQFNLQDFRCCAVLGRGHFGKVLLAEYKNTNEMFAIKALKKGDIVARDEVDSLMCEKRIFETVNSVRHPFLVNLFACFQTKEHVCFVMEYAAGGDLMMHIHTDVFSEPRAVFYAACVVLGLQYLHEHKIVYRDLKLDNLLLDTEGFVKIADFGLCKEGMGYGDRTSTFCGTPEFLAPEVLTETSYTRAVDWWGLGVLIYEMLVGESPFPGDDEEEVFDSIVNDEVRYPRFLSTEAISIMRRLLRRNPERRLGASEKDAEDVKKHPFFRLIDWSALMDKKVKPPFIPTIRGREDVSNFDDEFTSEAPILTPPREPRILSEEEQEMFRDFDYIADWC"}, "source": "paper PMC10619432", "key": {"[1]": {"molecular_target": "T1, pyrin E583A variant (human) (UniProt O15553)", "T1 sequence": "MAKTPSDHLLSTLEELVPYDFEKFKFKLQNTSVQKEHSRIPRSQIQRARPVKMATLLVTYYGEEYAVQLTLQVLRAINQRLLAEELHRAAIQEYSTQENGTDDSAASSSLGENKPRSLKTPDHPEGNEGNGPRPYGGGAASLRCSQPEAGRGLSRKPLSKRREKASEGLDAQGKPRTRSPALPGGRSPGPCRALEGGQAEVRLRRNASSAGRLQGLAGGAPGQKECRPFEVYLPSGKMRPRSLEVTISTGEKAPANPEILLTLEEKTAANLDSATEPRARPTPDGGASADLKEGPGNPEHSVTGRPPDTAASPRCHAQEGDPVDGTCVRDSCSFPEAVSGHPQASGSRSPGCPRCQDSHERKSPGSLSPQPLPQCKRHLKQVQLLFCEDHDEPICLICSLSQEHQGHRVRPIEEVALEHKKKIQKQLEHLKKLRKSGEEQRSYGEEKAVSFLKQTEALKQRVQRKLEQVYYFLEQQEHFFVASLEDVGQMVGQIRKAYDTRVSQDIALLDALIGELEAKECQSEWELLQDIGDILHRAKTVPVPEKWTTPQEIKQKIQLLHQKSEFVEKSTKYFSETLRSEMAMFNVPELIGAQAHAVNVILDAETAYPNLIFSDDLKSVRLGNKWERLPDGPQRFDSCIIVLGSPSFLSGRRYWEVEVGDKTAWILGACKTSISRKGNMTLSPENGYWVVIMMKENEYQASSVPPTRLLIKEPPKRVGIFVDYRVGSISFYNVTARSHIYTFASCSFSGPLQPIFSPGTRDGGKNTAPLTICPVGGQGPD", "assay": "co-IP; HEK293T cells lysed in NP-40 lysis buffer 24 hours after transfection; Flag or HA magnetic beads; eluted in SDS sample loading buffer, Western blot"}, "[2]": {"molecular_target": "T2, pyrin, wild type (encoded by MEFV) (human) (UniProt O15553)", "T2 sequence": "T1 sequence with A583E", "assay": "co-IP; HEK293T cells lysed in NP-40 lysis buffer 24 hours after transfection; Flag or HA magnetic beads; eluted in SDS sample loading buffer, Western blot"}}, "note": "Numbering of substitutions follows the chain as printed. No constants are given. Whether binding was seen depends on the method and setting. In cells and extracts the contact can be indirect. Some entries that bind do so weakly or less than the wild type."}
{"substance": "PSTPIP1 (from UniProt O43586 1-416)", "values": [{"measurement": "binding", "setting": "[1]", "result": "binds"}, {"measurement": "binding", "setting": "[2]", "result": "binds"}]}
{"substance": "PKN2 (from UniProt Q16513 1-984)", "values": [{"measurement": "binding", "setting": "[1]", "result": "binds"}, {"measurement": "binding", "setting": "[2]", "result": "binds"}]}
